# Test results as given in PubChem BioAssay AID1259354 (Paczesny and Yang Labs, IUPUI and University of Michigan, 2018).
# Sequences of proteins named here, by UniProt entry; tags and fusion partners are left off. A change or cut given only in a name is not applied to a line headed by its entry.
# UniProt Q01638: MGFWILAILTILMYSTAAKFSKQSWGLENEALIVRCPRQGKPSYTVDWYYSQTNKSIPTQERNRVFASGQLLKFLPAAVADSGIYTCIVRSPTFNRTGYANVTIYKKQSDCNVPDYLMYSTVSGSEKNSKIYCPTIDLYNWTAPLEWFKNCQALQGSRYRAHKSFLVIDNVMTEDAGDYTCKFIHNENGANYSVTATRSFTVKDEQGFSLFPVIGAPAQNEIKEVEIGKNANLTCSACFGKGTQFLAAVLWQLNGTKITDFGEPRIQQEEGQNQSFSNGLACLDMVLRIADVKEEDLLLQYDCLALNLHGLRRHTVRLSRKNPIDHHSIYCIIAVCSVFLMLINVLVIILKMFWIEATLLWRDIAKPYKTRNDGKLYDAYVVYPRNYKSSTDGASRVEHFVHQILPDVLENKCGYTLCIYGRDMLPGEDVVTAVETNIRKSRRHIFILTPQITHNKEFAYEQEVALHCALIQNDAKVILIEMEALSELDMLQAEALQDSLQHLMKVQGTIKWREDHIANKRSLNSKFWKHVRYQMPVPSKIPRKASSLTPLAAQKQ
# About 1,800 (2.3%) of roughly 78,000 compounds were called active. Inconclusive results, whose numbers are uncertain, are shown with a selection of clear calls. Cut-off read from the data, not from the text of the source: active = inhibition above about 30%; inconclusive = mostly about 10% to 28%; inactive = weaker than that.
# Target: Interleukin-1 receptor-like 1 (Homo sapiens) (UniProt Q01638)
# Experiment: blocks human ST2 binding to IL-33, primary screen, biochemical, AlphaLISA (AID 1259354)
# Conditions: AlphaLISA ST2-Fc/biotin-IL-33 interaction, 1 h; at 17 µM, hits give high values
row,SMILES,inhibition
1,Cc1ccc(C2C3=C(CCCC3=O)Nc3nc(SCc4ccccc4)[nH]c(=O)c32)cc1 (stereo not given),inactive
2,Cc1cc2nc(Nc3nc(C)c(Cc4ccccc4)c(=O)[nH]3)nc(C)c2cc1C,inconclusive: 15%
3,CC(C)CN1C(=O)NC(Cc2cccc(F)c2)(C2CCN(C(=O)c3cc(C4CC4)[nH]n3)CC2)C1=O (stereo not given),inactive
4,COc1ccc(NC(=O)c2ccco2)c([N+](=O)[O-])c1,inconclusive: 23%
5,COc1ccc(OC)c(C2C(C(=O)OC3CC(C)CCC3C(C)C)=C(C)Nc3ncnn32)c1 (stereo not given),inactive
6,CN(CCc1ccccn1)c1ncccc1CNC(=O)c1ccc2cc[nH]c2c1,inactive
7,CCc1nn(C)c(Cl)c1CN1CCCC(OCc2ccccn2)C1 (stereo not given),inconclusive: 23%
8,Cc1ccc(S(=O)(=O)NCC(=O)N2CCC(C)CC2)cc1,inconclusive: 14%
9,Cc1c(Cl)c([N+](=O)[O-])nn1CCCC(=O)Nc1cccc(Cl)c1,inconclusive: 14%
10,Cc1ccc(CN2CCCN(CC(=O)NCc3ccc(Cl)cc3)S2(=O)=O)cc1,inconclusive: 12%
11,COc1ccc(NC(=O)N[C@H]2C[C@@H](c3nc(-c4ccc(Cl)cc4)no3)N(C)C2)cc1,inconclusive: 15%
12,COc1ccc(N=Cc2c(C)[nH]n(-c3ccccc3)c2=O)cc1,inconclusive: 24%
13,N#CC1=C(N)Oc2c([nH]c(=O)[nH]c2=O)C1c1ccccc1[N+](=O)[O-] (stereo not given),inconclusive: 12%
14,O=c1[nH]c2c(c(=O)[nH]1)C(c1cc([N+](=O)[O-])ccc1N1CCOCC1)O2 (stereo not given),inconclusive: 21%
15,COc1cccc(OC)c1CNC(=O)c1cc(NC(C)=O)ccc1Cl,inactive
16,CC(C)NC(=O)c1ccc2nc3ccccc3c(=O)n2c1,inactive
17,COc1cc(C=O)ccc1OCCCOc1ccccc1[N+](=O)[O-],inconclusive: 15%
18,COc1cc(N/C=C(/C#N)c2nc(-c3ccc(OC)c(OC)c3)cs2)c(OC)cc1Cl,active: 40%
19,O=C1CC(c2ccc(F)cc2)Sc2nc(-c3ccccc3)nn21 (stereo not given),inactive
20,Cc1nc(CC(=O)N2CCc3c(cnc(C)c3CNC(=O)/C=C/c3cccs3)C2)cs1,active: 30%
21,Cc1ccc(-c2cc(C(=O)NC(C)Cc3cc(C)[nH]n3)[nH]n2)cc1 (stereo not given),inactive
22,CC(=O)N=c1c(=O)c2c(c(=O)c1=Nc1ccccc1)NON2,inconclusive: 12%
23,Cc1cc2n(n1)CCCN(C(=O)CC1COCCN1)C2 (stereo not given),inconclusive: 25%
24,Cc1cc(C)n(CC(=O)N2CCc3c(cnc(C)c3CNC(=O)/C=C/c3cccs3)C2)n1,inactive

row,SMILES,inhibition
1,CCCCOc1ccc(C(=O)Nc2cc(N3CCCS3(=O)=O)ccc2OC)cc1,inconclusive: 10%
2,Cc1cccc(OCC(=O)NCc2ccncc2)c1C,inconclusive: 11%
3,COc1ccc(NC(=O)C2C3CCCCC32)cc1 (stereo not given),inconclusive: 11%
4,Cc1c(C(=O)N2CCN(C)CC2)oc2ccc(S(=O)(=O)N3CCCCCC3)cc12,inactive
5,COc1ccc(-n2ncc3c(NCc4cccc(Cl)c4)ncnc32)cc1,inactive
6,CCCS(=O)(=O)N1CCN(c2nc(C)cc(N3CCCC3)n2)CC1,inactive
7,CCOC(=O)C1(Cc2ccccc2C(F)(F)F)CCN(C(=O)C#Cc2ccccc2)CC1,inactive
8,CCN1c2ccccc2NC2N=C(OC)C(c3ccccc3)C21 (stereo not given),inconclusive: 17%
9,O=c1/c(=C/c2ccc(OCc3ccccc3)cc2)sc2nc(-c3ccncc3)nn12,inconclusive: 11%
10,Cc1ccc(-c2ccnc(-c3ccc(C(=O)O)s3)n2)c(C)n1,inconclusive: 19%
11,CC1CCN(c2nc3c(c(=O)n(C)c(=O)n3C)n2Cc2ccccc2Br)CC1,inactive
12,CCC(=O)NCc1ccccc1-c1cccnc1OC,inconclusive: 12%
13,CCc1ccc(OCCCn2cc(/C=C3/C(=N)N4C=CSC4=NC3=O)c3ccccc32)cc1,inconclusive: 12%
14,COCCC(=O)N1C[C@H]2OC(=O)N(Cc3ccc(OC)c(OC)c3)[C@H]2C1,inactive
15,O=C(NCc1ccco1)c1cc(F)c(F)cc1Cl,inconclusive: 10%
16,CN(Cc1noc(C2CCCC2)n1)Cc1cn[nH]c1-c1ccc(F)cc1,inconclusive: 10%
17,O=C(CN1C(=O)/C(=C\c2ccc(Cl)cc2)Sc2ccccc21)NCCN1CCCCCC1,inconclusive: 29%
18,NC(=O)c1c(NC(=O)c2noc3c2CCCC3)sc2c1CCCC2,inconclusive: 17%
19,COc1ccccc1/C=C/c1[nH]c(=O)[nH]c(=O)c1[N+](=O)[O-],inactive
20,CC(=O)Oc1ccc(NC(=O)CC2SC(=Nc3ccccc3)N(c3ccccc3)C2=O)cc1 (stereo not given),inconclusive: 16%
21,OCCNc1cc(-n2cccn2)ncn1,inactive
22,CC1(C)CC(=O)c2sc(NC(=O)c3cccc(C(F)(F)F)c3)nc2C1,inconclusive: 11%
23,CCCCn1c(CN2CCc3cc(SC)ccc3C2)cnc1S(=O)(=O)CC,inconclusive: 10%
24,Cc1nc(SCC(=O)NC(C)COc2c(C)cccc2C)n[nH]1 (stereo not given),inconclusive: 17%

row,SMILES,inhibition
1,Cc1nc2cc(-c3ccccc3)nn2c(C)c1CCC(=O)Nc1ccc2c(c1)OCO2,inactive
2,Cc1nc(C(=O)N(C)Cc2snnc2C)cs1,inconclusive: 21%
3,O=C(C(Sc1ccccc1)c1ccccc1)N1CCN(c2ccccc2)CC1 (stereo not given),inconclusive: 14%
4,COc1ccc(S(=O)(=O)N[C@H]2C[C@@H](c3nc(Cc4ccccc4)no3)N(C)C2)cc1,inconclusive: 20%
5,Cc1ccc(N2CCCS2(=O)=O)cc1NC(=O)COc1ccccc1F,inactive
6,COc1ccc2c(c1)CN(c1ccc(C(=O)O)cc1)CO2,inactive
7,COc1ccc(CC(=O)Nc2ccc(=O)n3c2[C@@H]2C[C@@H](CN(S(=O)(=O)c4ccc(OC)cc4)C2)C3)cc1,inconclusive: 10%
8,Cn1c(=O)c2c(nc(SCC(=O)c3ccc([N+](=O)[O-])cc3)n2C)n(C)c1=O,inconclusive: 22%
9,O=C(CCn1cncn1)Nc1ccccc1C(=O)n1cnc2ccccc21,inconclusive: 17%
10,c1ccc(Oc2ccc(CN3CCCCC3)o2)cc1,inconclusive: 14%
11,O=C(CSc1c2c(nc3cc(Cl)ccc13)CCCC2)NCCCN1CCOCC1,inconclusive: 21%
12,COc1ccc(-c2noc([C@@H]3C[C@@H](O)CN3Cc3cccnc3)n2)cc1,inconclusive: 12%
13,CC(C)c1ccccc1NC(=O)CCCCCN1C(=O)c2cccc([N+](=O)[O-])c2C1=O,inconclusive: 16%
14,COc1ccc(NS(=O)(=O)c2ccc3c(c2)CCN3C(=O)C2CC2)cc1OC,inconclusive: 11%
15,Clc1cccc(-c2nccn2CCc2cccnc2)c1,inactive
16,CCC1=C(C)/C(=C\c2[nH]c(C)c(CC)c2C)N=C1C,active: 78%
17,CN1CCC2(CC1)CN(Cc1cccnc1OCC(F)(F)F)CCN2C,inconclusive: 10%
18,CN(CC1COc2ccccc2O1)C(=O)c1cn(Cc2ccccc2Cl)nn1 (stereo not given),inconclusive: 22%
19,O=C(CCc1nnc(CCc2c[nH]c3ccccc23)o1)N1CCC(c2ccccc2Cl)C1 (stereo not given),inactive
20,CCOC(=O)C12CC1/C(=N\O)c1ccccc1O2 (stereo not given),inactive
21,O=C(c1n[nH]c2c1CCC2)N(CC1CCN(Cc2ccccc2F)CC1)CC1CCCO1 (stereo not given),inactive
22,O=C(O)c1nccnc1C(=O)Nc1cc(Cl)ccc1Cl,inconclusive: 17%
23,COc1ccc(/C=C2\Sc3ccccc3N(CC(=O)NC3CCCC(C)C3C)C2=O)cc1 (stereo not given),inconclusive: 12%
24,CCN(CC1CCCCO1)C(=O)c1cccc(-n2cnnc2)c1 (stereo not given),inactive

row,SMILES,inhibition
1,Clc1cc(Cl)cc(-c2ncccn2)c1,inactive
2,Clc1ccc(CSc2ncccn2)c(Cl)c1,inconclusive: 11%
3,CCOc1ccc(C2C3=C(Nc4c2c(=O)n(C)c(=O)n4C)c2ccccc2C3=O)cc1 (stereo not given),inconclusive: 13%
4,Cc1cc(C)cc(C(=O)N2CCN(S(=O)(=O)c3cc4c5c(c3)CCN5C(=O)CC4)CC2)c1,inconclusive: 12%
5,COC(=O)[C@@H](c1ccc(O)cc1)N1Cc2ncccc2C1=O,inconclusive: 14%
6,Cc1ccc(Cn2c(CCNC(=O)Nc3cc(C)ccc3C)nc3cccnc32)cc1,inconclusive: 11%
7,O=C1NN(c2ccc(Cl)cc2)C(=O)/C1=C\c1ccc(-c2ccc(C(=O)O)c(Cl)c2)o1,inconclusive: 20%
8,C1=CC2C(C1)C1CC2C2C1N=NN2c1ccccc1 (stereo not given),inactive
9,COc1cc(NC(=O)NC[C@H]2O[C@@H](CO)[C@@H](O)[C@H]2N2CCN(C)CC2)cc(OC)c1,inactive
10,CC(C)Oc1ccc(NC(=O)COc2ccccc2[N+](=O)[O-])cc1,inconclusive: 21%
11,Fc1ccc(OCCN2CCCCC2)cc1,inconclusive: 13%
12,COCc1cc(CNC(=O)c2c(C)n(C)c3ccc(OC)cc23)[nH]n1,inactive
13,O=C(NCC1CCCN(Cc2ccon2)C1)c1ccc(-c2ccccc2)cc1 (stereo not given),inconclusive: 10%
14,CSc1nsc(SC)c1NC(=O)Nc1ccc(Br)cc1,inactive
15,CCC(C)Sc1nc2c(c(=O)n1-c1ccc(Cl)cc1)SCC2 (stereo not given),inconclusive: 15%
16,CCOc1ccc(S(=O)(=O)N2CCN(c3cc(-c4cccc(F)c4)ncn3)CC2)cc1,inactive
17,COc1ccc([N+](=O)[O-])cc1NC(=O)COc1cc(C)cc(C)c1,inconclusive: 18%
18,CCCCN(CC#CC(O)(c1ccccc1)c1ccccc1)CCO,inactive
19,Cc1cc(C)c(N)c([N+](=O)[O-])c1,inconclusive: 25%
20,Cc1[nH]nc(NN)c1Cl,active: 55%
21,Cc1ccccc1Cc1c(C)nc2nc(SCC(=O)NCCCN3CCCC3)nn2c1C,inconclusive: 13%
22,CCCCNC(=O)c1cccc(Br)c1,inactive
23,O=C(O)CC1(CC(=O)N[C@H]2CO[C@H]3[C@@H]2OC[C@@H]3n2nnnc2-c2ccc3c(c2)OCO3)CCCC1,inconclusive: 24%
